By UniProt entry, the sequences of proteins in these tests, tags left out. Where a name states a change or a piece, a line headed by the entry shows the natural chain unless it says otherwise.
UniProt Q9NWT6: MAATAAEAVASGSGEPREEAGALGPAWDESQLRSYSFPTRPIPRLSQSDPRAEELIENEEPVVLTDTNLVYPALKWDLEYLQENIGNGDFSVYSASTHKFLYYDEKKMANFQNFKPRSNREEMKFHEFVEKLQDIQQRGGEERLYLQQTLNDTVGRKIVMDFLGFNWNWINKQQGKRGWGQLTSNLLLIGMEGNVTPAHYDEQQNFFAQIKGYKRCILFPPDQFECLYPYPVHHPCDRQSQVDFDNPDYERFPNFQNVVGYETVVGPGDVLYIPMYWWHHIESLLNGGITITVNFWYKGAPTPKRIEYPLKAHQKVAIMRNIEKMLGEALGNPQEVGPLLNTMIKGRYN
UniProt Q9NWY4: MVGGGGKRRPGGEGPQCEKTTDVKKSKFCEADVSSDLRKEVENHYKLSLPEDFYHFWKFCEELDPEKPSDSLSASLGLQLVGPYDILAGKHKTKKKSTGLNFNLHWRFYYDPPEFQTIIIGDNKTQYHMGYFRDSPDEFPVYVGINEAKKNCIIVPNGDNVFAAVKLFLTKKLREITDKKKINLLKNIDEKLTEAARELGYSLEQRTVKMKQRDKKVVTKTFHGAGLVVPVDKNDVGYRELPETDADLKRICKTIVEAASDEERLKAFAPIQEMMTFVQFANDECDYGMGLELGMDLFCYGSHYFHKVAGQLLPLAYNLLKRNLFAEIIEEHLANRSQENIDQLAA
UniProt Q00839, whole entry, looked up: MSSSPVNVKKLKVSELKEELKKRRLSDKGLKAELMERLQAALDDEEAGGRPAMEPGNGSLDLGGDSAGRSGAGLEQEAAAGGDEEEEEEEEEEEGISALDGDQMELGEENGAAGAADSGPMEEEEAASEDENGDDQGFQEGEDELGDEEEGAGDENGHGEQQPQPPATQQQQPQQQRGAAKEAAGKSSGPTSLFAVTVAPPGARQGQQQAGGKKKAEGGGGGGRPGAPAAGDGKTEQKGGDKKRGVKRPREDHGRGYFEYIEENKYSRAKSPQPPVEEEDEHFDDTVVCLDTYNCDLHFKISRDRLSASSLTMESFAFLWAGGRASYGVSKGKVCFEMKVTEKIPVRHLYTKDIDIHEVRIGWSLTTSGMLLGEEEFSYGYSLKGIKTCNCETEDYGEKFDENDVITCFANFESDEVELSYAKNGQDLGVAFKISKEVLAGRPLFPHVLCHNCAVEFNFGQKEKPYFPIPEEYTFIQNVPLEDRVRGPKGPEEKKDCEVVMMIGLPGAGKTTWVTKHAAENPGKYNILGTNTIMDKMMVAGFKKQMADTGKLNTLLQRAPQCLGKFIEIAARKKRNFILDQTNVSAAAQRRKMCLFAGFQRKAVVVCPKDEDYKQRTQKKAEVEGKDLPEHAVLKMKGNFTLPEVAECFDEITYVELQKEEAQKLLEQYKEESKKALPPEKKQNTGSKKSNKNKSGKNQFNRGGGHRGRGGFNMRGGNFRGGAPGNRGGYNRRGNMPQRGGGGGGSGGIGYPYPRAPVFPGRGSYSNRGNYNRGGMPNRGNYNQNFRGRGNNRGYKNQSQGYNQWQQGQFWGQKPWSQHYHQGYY
UniProt P04439, whole entry, looked up: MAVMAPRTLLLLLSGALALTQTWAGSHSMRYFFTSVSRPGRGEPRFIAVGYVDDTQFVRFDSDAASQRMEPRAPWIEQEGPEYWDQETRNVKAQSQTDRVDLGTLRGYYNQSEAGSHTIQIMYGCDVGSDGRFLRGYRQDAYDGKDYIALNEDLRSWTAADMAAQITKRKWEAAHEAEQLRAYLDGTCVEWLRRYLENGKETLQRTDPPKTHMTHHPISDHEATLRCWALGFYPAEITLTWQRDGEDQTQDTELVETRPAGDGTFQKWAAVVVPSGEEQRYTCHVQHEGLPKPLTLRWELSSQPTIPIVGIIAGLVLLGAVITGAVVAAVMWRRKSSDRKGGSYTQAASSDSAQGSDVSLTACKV
UniProt Q05084: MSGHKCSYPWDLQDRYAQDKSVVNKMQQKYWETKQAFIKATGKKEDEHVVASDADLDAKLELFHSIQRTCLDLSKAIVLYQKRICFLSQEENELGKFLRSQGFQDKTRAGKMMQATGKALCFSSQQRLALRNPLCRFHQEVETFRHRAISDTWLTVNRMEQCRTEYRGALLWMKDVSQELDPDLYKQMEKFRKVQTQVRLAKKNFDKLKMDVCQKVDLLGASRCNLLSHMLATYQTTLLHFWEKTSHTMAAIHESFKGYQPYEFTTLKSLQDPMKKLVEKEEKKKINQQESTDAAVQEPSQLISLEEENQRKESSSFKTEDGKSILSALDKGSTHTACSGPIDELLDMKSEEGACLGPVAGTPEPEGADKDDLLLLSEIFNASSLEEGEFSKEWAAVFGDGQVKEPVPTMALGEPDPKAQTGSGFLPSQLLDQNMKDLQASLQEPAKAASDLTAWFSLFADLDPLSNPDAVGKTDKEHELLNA
UniProt P41134: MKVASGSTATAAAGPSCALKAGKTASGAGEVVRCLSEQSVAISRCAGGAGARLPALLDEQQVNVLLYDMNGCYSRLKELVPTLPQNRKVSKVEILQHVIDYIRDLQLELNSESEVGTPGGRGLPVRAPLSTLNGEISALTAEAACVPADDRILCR
UniProt H0YH80: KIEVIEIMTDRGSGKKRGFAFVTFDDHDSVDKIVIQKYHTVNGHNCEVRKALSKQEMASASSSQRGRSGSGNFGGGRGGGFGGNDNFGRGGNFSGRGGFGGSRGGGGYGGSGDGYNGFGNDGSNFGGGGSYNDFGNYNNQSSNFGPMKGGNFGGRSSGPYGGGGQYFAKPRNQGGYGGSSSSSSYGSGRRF
UniProt Q9Y2F5: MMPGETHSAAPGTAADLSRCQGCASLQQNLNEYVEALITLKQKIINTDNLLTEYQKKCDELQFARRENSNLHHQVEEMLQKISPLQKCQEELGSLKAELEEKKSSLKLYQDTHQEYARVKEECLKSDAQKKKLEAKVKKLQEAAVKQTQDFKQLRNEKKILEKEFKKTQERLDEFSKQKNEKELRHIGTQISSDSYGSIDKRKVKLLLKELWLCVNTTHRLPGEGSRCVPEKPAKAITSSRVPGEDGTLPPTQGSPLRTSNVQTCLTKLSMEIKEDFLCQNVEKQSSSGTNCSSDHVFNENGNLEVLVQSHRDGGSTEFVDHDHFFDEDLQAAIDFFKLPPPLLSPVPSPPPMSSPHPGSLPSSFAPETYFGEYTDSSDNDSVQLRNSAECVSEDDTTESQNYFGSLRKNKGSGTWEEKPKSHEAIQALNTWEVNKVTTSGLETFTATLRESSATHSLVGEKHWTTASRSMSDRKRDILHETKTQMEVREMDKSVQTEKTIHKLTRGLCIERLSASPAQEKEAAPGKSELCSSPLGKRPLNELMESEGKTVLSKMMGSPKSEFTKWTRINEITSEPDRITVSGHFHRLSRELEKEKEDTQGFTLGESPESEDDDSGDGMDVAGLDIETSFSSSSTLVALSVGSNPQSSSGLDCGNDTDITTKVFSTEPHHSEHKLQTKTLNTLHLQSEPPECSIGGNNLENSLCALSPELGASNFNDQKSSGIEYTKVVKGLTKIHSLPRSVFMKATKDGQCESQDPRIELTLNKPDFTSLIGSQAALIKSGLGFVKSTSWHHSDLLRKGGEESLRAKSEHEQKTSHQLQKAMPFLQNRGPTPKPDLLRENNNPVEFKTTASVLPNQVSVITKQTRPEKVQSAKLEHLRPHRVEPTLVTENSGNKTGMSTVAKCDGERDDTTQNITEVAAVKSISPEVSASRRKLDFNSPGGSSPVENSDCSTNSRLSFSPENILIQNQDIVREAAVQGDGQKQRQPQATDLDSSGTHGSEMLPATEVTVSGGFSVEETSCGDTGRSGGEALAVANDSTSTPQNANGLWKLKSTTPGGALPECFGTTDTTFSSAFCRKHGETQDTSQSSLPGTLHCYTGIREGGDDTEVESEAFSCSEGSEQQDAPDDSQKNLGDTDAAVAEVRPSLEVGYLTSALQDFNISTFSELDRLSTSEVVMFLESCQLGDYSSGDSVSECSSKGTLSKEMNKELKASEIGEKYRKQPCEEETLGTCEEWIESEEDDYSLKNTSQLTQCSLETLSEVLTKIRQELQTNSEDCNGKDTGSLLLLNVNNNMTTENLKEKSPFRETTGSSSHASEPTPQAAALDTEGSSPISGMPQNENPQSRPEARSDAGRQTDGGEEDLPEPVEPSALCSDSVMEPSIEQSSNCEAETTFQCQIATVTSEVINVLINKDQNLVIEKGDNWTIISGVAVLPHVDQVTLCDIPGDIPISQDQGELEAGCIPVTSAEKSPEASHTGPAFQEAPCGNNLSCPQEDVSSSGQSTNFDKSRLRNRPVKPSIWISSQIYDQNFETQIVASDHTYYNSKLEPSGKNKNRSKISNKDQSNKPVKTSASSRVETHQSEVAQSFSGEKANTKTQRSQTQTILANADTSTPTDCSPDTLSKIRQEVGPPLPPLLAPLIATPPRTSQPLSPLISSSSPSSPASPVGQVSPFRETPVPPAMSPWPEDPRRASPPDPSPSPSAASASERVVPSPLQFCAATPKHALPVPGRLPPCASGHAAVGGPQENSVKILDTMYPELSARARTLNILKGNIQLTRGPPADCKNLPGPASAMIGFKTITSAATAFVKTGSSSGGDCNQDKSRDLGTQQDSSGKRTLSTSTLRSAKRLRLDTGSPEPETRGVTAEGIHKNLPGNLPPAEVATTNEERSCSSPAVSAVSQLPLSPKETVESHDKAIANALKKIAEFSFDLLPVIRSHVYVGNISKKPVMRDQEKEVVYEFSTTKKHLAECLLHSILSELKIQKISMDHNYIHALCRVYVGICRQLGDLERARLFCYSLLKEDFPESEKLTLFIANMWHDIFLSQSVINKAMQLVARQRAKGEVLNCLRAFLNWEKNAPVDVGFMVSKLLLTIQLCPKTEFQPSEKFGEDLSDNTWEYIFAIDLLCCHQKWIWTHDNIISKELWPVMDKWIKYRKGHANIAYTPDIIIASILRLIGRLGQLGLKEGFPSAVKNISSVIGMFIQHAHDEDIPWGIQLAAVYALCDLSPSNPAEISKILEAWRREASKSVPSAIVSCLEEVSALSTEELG
UniProt Q9Y241: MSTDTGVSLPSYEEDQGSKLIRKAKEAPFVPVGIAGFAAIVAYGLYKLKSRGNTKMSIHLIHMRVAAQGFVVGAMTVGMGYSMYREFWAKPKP
UniProt P00738: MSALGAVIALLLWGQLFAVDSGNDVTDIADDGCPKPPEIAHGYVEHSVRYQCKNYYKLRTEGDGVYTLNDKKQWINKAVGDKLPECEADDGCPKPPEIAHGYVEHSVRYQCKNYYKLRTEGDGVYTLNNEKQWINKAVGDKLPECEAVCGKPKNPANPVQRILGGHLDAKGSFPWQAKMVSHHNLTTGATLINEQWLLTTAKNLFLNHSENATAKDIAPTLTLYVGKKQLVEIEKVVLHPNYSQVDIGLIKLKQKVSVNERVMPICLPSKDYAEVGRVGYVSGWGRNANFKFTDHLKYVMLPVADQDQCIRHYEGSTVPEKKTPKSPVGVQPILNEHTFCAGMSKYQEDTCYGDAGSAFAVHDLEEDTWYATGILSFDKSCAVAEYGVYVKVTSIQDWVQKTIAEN
UniProt Q8TCT9: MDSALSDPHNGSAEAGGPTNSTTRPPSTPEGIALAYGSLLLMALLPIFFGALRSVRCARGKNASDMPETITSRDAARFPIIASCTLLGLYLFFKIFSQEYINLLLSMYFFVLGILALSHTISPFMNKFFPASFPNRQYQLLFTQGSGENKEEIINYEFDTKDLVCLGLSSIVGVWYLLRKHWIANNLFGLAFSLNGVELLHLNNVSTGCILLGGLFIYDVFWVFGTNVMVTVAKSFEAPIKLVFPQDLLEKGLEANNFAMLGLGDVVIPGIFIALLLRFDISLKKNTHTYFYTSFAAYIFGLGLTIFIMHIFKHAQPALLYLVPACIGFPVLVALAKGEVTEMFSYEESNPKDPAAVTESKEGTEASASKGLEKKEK
UniProt O43390: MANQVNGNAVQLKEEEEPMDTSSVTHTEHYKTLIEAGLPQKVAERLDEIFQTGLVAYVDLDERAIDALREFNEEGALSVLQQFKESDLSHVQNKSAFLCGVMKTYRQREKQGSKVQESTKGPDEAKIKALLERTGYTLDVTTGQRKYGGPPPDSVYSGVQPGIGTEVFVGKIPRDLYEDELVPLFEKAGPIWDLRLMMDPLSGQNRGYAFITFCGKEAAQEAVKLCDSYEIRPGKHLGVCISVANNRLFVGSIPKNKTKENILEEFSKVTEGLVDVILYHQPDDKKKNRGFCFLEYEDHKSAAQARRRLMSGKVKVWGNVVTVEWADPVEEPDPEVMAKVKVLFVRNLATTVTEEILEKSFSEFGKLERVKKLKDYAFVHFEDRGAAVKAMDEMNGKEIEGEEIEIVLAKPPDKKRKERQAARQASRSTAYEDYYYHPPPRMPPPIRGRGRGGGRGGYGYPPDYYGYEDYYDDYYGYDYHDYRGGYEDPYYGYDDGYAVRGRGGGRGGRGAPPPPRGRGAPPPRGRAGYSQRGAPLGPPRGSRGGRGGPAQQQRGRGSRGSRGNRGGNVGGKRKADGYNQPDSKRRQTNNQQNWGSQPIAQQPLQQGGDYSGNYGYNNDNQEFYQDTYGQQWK

This is one part of the list.
These targets were tested with CN1CCN(CCOc2cc(OC3CCOCC3)c3c(Nc4c(Cl)ccc5c4OCO5)ncnc3c2)CC1 [saracatinib] (assay: log2 fold change, soluble protein after heating vs DMSO (PISA); higher = thermal stabilisation; K562 cells, 10 uM, 30 min; active = over 0.2 and 3.5 SD of the protein, either way, in both replicates (recomputed)).
Method in brief: (§1)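 Aliquots of K562 cells (2×10^6 cells/mL) treated with 10 μM compound for 30 min were heated for 3 min over 48°C-58°C. After pooling and extraction in PBS with 0.5% NP-40 at 4°C, soluble protein from a 21,000xg, 90 min spin was quantified by TMTpro 16plex LC-MS/MS with channel sums equalised. Thermal stability is expressed against control samples, from duplicates, as a log2 fold change.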
HIF1AN (UniProt Q9NWT6) was tested, and the log2 fold change was inactive: 0.024.
With HPF1 (UniProt Q9NWY4) the log2 fold change was inactive: -0.125.
HNRNPU isoform 2 (UniProt Q00839) was tested, and the log2 fold change was inactive: -0.101.
HOOK1 (UniProt Q9UJC3) was tested, and the log2 fold change was inactive: -0.048.
In the case of HPS4 isoform 4 (UniProt Q9NQG7), the log2 fold change was inactive: 0.101.
HLA-A isoform 2 (UniProt P04439) was tested, and the log2 fold change was inactive: -0.233.
With ICA1 isoform 2 (UniProt Q05084) the log2 fold change was inactive: 0.013.
For ID1 (UniProt P41134), the log2 fold change was inactive: 0.023.

Each target was assayed with CN1CCN(c2nc(C3=C(c4c[nH]c5ccccc45)C(=O)NC3=O)c3ccccc3n2)CC1 [sotrastaurin] in the same assay as above.
Method in brief: as §1
In the case of HNRNPA1 (UniProt H0YH80), the log2 fold change was inactive: -0.219.
For HSPA8 (UniProt E9PN89), the log2 fold change was inactive: 0.105.
For HSPA2 (UniProt P54652), the log2 fold change was inactive: 0.038.
In the case of ICE1 (UniProt Q9Y2F5), the log2 fold change was inactive: 0.081.
In the case of HIGD1A isoform 2 (UniProt Q9Y241), the log2 fold change was inactive: 0.012.
In the case of HP (UniProt P00738), the log2 fold change was inactive: -0.231.
HPS1 (UniProt Q92902) was tested, and the log2 fold change was inactive: 0.041.
With HM13 (UniProt Q8TCT9) the log2 fold change was inactive: 0.008.
For HMGCS2 (UniProt P54868), the log2 fold change was inactive: -0.057.
For HNRNPR (UniProt O43390), the log2 fold change was inactive: 0.057.
HOMER3 (UniProt Q9NSC5) was tested, and the log2 fold change was inactive: -0.01.
HMBS (UniProt F5H226) was tested, and the log2 fold change was inactive: 0.085.
With HTD2 (UniProt P86397) the log2 fold change was inactive: 0.067.
